Reference: the supplement of paper PMC10849652
This is one part of the list.

The chains behind the UniProt entries cited, without tags or fusion partners. Where a name states a change or a piece, a line headed by the entry shows the natural chain unless it says otherwise.
UniProt Q86YS7: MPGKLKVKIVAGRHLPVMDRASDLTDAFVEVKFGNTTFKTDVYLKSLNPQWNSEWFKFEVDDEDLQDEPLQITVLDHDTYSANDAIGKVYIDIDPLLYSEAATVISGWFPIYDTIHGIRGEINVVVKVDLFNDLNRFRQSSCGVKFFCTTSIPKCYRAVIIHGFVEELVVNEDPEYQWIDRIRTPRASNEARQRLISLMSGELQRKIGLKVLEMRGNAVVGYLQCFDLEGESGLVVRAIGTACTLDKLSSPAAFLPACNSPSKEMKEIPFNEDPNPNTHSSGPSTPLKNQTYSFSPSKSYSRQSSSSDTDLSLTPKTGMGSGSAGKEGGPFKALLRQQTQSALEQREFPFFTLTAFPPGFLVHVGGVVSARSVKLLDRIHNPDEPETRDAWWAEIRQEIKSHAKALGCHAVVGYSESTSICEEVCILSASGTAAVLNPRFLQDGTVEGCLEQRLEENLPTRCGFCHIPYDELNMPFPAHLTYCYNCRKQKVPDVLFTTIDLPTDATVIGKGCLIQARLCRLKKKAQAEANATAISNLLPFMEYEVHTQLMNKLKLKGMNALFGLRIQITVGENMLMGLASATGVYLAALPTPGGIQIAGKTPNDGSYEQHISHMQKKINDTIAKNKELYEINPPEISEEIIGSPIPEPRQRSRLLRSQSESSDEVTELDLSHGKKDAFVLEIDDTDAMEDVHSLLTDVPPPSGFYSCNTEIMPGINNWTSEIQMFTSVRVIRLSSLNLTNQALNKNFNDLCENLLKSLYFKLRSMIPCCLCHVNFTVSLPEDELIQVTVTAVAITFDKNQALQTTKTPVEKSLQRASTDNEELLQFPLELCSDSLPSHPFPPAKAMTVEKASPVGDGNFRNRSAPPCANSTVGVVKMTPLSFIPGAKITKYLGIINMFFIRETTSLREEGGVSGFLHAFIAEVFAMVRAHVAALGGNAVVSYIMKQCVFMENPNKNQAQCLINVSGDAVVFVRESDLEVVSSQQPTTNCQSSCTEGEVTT
UniProt Q7L1Q6: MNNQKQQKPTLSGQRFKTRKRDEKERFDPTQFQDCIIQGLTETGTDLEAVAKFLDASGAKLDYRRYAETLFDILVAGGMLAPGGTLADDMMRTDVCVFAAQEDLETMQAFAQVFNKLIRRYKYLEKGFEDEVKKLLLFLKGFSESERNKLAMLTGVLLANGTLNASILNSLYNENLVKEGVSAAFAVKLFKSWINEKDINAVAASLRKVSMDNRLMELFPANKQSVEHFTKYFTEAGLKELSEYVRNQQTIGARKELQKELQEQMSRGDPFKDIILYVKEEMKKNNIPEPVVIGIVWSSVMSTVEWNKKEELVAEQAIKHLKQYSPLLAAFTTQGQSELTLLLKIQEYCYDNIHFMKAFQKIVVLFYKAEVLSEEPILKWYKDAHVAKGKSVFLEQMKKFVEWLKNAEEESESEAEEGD
UniProt Q9HB71, whole entry, looked up: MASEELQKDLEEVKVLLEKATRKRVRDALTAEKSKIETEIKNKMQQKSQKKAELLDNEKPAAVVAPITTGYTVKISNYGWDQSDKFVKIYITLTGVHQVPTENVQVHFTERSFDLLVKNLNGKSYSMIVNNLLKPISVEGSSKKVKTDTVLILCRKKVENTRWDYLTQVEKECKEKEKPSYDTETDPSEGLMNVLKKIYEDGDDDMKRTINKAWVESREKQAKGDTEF
UniProt P27824: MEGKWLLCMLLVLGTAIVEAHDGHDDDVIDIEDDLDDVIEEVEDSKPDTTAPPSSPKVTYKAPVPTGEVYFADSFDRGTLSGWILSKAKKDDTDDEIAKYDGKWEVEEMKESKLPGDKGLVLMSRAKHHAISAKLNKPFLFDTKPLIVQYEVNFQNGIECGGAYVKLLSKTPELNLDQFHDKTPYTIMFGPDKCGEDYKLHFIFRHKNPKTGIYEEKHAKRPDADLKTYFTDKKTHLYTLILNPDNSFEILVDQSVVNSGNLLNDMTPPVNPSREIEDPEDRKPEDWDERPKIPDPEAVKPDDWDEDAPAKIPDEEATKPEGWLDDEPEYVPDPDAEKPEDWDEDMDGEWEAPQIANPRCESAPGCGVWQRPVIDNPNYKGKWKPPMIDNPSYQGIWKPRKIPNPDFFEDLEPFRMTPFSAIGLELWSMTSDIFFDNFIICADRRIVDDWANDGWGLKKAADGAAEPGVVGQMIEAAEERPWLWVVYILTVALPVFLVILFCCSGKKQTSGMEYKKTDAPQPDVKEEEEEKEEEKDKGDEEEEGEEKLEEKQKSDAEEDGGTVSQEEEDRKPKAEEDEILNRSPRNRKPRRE
UniProt Q9H3H3: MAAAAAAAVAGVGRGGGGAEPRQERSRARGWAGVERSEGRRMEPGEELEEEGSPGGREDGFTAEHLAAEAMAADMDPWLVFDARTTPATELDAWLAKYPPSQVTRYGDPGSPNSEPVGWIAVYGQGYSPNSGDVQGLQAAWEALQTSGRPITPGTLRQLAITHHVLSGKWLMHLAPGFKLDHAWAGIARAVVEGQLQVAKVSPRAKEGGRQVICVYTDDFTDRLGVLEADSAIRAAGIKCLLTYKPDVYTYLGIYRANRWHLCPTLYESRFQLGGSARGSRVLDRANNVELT
UniProt P47756, whole entry, looked up: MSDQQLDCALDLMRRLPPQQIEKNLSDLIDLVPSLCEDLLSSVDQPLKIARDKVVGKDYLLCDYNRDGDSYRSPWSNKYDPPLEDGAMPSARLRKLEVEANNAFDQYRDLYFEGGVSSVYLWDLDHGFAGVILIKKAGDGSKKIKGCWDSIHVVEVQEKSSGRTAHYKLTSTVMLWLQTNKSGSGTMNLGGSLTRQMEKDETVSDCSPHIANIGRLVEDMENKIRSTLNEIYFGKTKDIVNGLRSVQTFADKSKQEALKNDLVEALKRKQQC
UniProt Q9H3J6: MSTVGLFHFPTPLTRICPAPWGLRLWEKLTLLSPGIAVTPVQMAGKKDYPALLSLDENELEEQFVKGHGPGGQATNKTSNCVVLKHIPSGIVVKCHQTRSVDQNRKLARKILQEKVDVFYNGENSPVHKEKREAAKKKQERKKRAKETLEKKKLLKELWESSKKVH
UniProt P49069: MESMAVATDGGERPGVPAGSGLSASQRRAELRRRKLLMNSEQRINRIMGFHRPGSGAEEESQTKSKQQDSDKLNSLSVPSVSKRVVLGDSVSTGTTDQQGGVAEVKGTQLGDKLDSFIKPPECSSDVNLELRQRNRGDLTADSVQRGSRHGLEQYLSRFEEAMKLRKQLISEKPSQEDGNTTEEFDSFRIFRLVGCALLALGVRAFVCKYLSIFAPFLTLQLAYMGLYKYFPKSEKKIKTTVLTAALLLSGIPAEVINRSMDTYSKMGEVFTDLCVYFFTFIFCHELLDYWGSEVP
UniProt Q9H8G2: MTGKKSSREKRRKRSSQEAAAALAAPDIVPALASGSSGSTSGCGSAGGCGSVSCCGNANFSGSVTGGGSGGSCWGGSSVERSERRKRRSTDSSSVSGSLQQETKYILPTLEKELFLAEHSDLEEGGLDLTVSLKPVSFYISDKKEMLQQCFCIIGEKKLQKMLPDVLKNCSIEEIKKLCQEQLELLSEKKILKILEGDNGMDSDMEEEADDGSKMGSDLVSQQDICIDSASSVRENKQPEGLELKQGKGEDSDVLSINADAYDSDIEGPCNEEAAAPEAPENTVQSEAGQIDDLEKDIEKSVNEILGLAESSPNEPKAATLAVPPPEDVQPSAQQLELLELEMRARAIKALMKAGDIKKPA
UniProt Q96B23: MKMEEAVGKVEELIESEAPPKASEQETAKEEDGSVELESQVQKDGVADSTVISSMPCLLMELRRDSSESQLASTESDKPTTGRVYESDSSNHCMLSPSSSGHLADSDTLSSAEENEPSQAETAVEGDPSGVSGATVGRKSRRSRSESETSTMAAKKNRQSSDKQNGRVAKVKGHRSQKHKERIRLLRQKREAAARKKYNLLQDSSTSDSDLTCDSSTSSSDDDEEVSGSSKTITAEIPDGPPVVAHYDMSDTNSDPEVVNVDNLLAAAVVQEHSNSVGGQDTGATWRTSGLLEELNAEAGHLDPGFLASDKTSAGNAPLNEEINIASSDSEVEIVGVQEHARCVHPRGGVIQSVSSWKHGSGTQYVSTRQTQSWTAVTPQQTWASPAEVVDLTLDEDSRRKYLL
UniProt Q01518, whole entry, looked up: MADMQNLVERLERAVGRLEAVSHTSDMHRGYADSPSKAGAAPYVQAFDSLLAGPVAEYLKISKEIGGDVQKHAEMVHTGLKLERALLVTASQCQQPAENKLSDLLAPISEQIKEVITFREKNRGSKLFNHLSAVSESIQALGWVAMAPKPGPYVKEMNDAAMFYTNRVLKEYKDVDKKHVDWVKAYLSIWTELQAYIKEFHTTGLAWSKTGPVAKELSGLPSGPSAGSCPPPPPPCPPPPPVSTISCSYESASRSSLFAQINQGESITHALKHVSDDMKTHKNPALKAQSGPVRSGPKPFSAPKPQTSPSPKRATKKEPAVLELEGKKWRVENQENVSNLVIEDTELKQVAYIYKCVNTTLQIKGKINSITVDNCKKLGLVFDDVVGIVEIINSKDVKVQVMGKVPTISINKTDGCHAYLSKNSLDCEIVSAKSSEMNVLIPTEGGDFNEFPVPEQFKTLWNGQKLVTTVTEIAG
UniProt Q96EU7: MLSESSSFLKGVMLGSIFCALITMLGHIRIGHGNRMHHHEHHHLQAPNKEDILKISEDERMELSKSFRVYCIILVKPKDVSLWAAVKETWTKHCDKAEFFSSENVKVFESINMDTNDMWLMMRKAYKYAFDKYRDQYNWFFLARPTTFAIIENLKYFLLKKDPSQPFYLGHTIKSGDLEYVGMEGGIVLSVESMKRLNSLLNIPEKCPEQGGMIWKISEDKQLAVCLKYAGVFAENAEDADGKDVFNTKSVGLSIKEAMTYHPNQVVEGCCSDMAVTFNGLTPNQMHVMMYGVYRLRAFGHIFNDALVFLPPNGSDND
UniProt Q9H425: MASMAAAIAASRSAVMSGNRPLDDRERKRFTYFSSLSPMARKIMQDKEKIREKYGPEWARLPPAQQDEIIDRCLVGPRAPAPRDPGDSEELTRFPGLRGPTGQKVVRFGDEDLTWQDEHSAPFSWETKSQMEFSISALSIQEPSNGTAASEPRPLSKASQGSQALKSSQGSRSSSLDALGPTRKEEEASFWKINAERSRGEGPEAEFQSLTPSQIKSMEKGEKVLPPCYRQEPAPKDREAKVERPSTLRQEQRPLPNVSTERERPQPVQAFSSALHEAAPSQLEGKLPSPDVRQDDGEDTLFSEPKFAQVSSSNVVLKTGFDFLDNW
UniProt P05937: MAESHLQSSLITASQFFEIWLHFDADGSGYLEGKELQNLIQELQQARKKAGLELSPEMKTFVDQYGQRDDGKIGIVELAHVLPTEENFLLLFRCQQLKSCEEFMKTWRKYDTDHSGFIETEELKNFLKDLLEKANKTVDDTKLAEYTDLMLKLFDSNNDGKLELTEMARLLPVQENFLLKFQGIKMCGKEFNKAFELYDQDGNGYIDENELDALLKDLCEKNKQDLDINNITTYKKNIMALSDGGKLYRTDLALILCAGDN
UniProt O14523: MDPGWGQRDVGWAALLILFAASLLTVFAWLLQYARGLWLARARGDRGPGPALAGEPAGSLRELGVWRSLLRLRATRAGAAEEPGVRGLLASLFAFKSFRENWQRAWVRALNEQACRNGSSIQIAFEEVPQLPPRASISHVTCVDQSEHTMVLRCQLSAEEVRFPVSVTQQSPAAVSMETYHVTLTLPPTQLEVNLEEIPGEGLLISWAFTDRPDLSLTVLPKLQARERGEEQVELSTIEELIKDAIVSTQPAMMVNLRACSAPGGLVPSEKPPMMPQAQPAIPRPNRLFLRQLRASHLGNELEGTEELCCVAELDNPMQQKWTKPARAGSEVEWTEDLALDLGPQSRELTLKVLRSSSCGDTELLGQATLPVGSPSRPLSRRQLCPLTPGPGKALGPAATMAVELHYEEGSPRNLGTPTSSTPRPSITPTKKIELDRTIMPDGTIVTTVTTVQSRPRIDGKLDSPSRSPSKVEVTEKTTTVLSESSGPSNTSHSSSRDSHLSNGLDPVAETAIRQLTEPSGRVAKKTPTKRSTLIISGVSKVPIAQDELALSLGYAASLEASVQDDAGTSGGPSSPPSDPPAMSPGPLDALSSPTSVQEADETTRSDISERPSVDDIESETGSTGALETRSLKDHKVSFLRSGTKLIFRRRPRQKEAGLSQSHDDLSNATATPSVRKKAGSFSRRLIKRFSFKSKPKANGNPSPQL

Key:
Experiment in all cases: log2 fold change, soluble protein after heating vs DMSO (PISA); higher = thermal stabilisation; K562 lysate, 10 uM; active = over 0.2 and 3.5 SD of the protein, either way, in both replicates (recomputed)
[1] = compound: C=CC(=O)N1CCC[C@@H](n2nc(-c3ccc(Oc4ccccc4)cc3)c3c(N)ncnc32)C1 [ibrutinib]
In short: (§1)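 Thermal stability, expressed as log-two fold change relative to solvent controls, is given from duplicates. Crude K562 extract in PBS pH 7.4 with 1 mM MgCl2, at 1 mg/mL protein, was treated with 10 μM compound for 30 min and heated in aliquots for 3 min across 48°C-58°C. After pooling, adjustment to 0.5% NP-40 at 4°C and centrifugation at 21,000xg for 90 min, supernatant protein was measured by TMTpro 16plex LC-MS/MS with channel sums equalised.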

[2] = compound: CC(=O)c1cnc2ccc(-c3cc(Cl)c(O)c(Cl)c3)nc2c1N[C@H]1CC[C@H](CN(C)C)CC1
In short: as §1

[3] = compound: CC(C)(C)Cn1c(N)nc2ccc(-c3[nH]c(C(C)(C)C)nc3-c3ccc(F)cc3)nc21 [ralimetinib]
In short: as §1

[4] = compound: CC(C)(O)CC(=O)NCCn1ccc2ncnc(Nc3ccc(Oc4cccc(C(F)(F)F)c4)c(Cl)c3)c21
In short: as §1

[5] = compound: CC(C)C1=C2N=C(C=C(N2N=C1)NCC3=CC=CC=C3)NCCCCCCN
In short: as §1

[6] = compound: CC1=C(C(CC(=O)N1)C2=CC=C(C=C2)C(F)(F)F)C(=O)NC3=C(C=C4C(=C3)C=NN4)F
In short: as §1

[7] = compound: CC1=C(C2=C(C=C1)C(=O)C3=CC=CC=C3N2CCCN)C
In short: as §1

[8] = compound: CC1=C(C=C(C=C1)NC(=O)C2=CC(=CC=C2)C(C)(C)C#N)NC3=CC4=C(C=C3)N=CN(C4=O)C
In short: as §1

[9] = compound: CC1=C(C=C(C=C1)NC(=O)C2=CC(=CC=C2)N(C)C)NC(=O)C3=CC=C(C=C3)O
In short: as §1

[10] = compound: CC1=CC=C(C=C1)SC2=C3C=C(SC3=CN=C2)C(=O)N
In short: as §1

[11] = compound: CCCS(=O)(=O)Nc1ccc(F)c(C(=O)c2c[nH]c3ncc(-c4ccc(Cl)cc4)cc23)c1F [vemurafenib]
In short: as §1

[12] = compound: CCCS(=O)(=O)Nc1ccc(F)c(C(=O)c2c[nH]c3ncc(Cl)cc23)c1F
In short: as §1

[13] = compound: CCN(CCCOc1ccc2c(Nc3cc(CC(=O)Nc4cccc(F)c4)[nH]n3)ncnc2c1)CCOP(=O)(O)O [barasertib]
In short: as §1

[14] = compound: CC[C@@H]1C(=O)N(C)c2cnc(Nc3ccc(C(=O)NC4CCN(C)CC4)cc3OC)nc2N1C1CCCC1
In short: as §1

[15] = compound: CC[C@@H]1C(=O)N(C)c2cnc(Nc3ccc(C(=O)N[C@H]4CC[C@H](N5CCN(CC6CC6)CC5)CC4)cc3OC)nc2N1C(C)C [volasertib]
In short: as §1

[16] = compound: CCn1c(C(=O)N(C2CC2)C2CC2)cc2c3c(ncn3C)c(Nc3cc(C)n(C)n3)nc21
In short: as §1

[17] = compound: CCn1cc(-c2ccnc3[nH]c(-c4cccc(CN(C)C)c4)cc23)c(-c2ccc(NC(=O)N(C)C)cc2)n1
In short: as §1

[18] = compound: CN1CCC(CNc2ccc3ncc(-c4cccc(OC(F)(F)F)c4)n3n2)CC1
In short: as §1

[19] = compound: CN1CCN(CCOc2cc(OC3CCOCC3)c3c(Nc4c(Cl)ccc5c4OCO5)ncnc3c2)CC1 [saracatinib]
In short: as §1

[20] = compound: CN1CCN(c2nc(C3=C(c4c[nH]c5ccccc45)C(=O)NC3=O)c3ccccc3n2)CC1 [sotrastaurin]
In short: as §1

Measured: log2 fold change

C2CD5 isoform 3 (UniProt Q86YS7)
inactive: [1] -0.005 | [2] -0.026 | [3] 0.016 | [4] -0.123 | [5] 0.019 | [6] -0.018 | [7] 0.023 | [8] 0.071 | [9] -0.004 | [10] -0.068 | [11] 0.068 | [12] 0.022 | [13] 0.049 | [14] 0.062 | [15] -0.025 | [16] -0.069 | [18] 0.162 | [19] 0.058 | [20] -0.023
active: [17] -0.309

BZW1 isoform 3 (UniProt Q7L1Q6)
inactive: [1] 0.015 | [2] 0.014 | [3] -0.015 | [4] 0.002 | [5] -0.016 | [6] -0.005 | [7] 0.042 | [8] -0.036 | [9] 0.009 | [10] 0 | [11] -0.041 | [12] 0 | [13] 0.02 | [14] -0.086 | [15] -0.023 | [16] 0.027 | [17] -0.048 | [18] -0.014 | [19] 0.01 | [20] 0.009

C19orf53 (UniProt Q9UNZ5)
inactive: [1] 0.011 | [2] -0.013 | [3] 0.024 | [4] -0.044 | [5] -0.036 | [6] 0.018 | [7] -0.041 | [8] -0.011 | [9] 0.025 | [10] 0.029 | [11] -0.104 | [12] -0.03 | [13] -0.02 | [14] 0.054 | [15] -0.05 | [16] -0.017 | [17] 0.091 | [18] -0.035 | [19] 0.008 | [20] 0.042

Quoted at random: 2 records from the list.
C19orf53 (UniProt Q9UNZ5)
inactive: [1] 0.011 | [2] -0.013 | [3] 0.024 | [4] -0.044 | [5] -0.036 | [6] 0.018 | [7] -0.041 | [8] -0.011 | [9] 0.025 | [10] 0.029 | [11] -0.104 | [12] -0.03 | [13] -0.02 | [14] 0.054 | [15] -0.05 | [16] -0.017 | [17] 0.091 | [18] -0.035 | [19] 0.008 | [20] 0.042

BZW1 isoform 3 (UniProt Q7L1Q6)
inactive: [1] 0.015 | [2] 0.014 | [3] -0.015 | [4] 0.002 | [5] -0.016 | [6] -0.005 | [7] 0.042 | [8] -0.036 | [9] 0.009 | [10] 0 | [11] -0.041 | [12] 0 | [13] 0.02 | [14] -0.086 | [15] -0.023 | [16] 0.027 | [17] -0.048 | [18] -0.014 | [19] 0.01 | [20] 0.009

Next records:

CACYBP (UniProt Q9HB71)
inactive: [1] -0.016 | [2] 0.006 | [3] -0.042 | [4] -0.002 | [5] 0.009 | [6] -0.028 | [7] -0.001 | [8] -0.008 | [9] -0.003 | [10] -0.024 | [11] 0.005 | [12] -0.021 | [13] -0.049 | [14] 0.023 | [15] 0.023 | [16] -0.039 | [17] -0.014 | [18] 0.03 | [19] -0.007 | [20] 0.021

CANX isoform 2 (UniProt P27824)
inactive: [1] -0.046 | [2] -0.009 | [3] -0.029 | [4] 0.003 | [5] 0.007 | [6] 0.001 | [7] -0.004 | [8] 0.011 | [9] 0.029 | [10] -0.025 | [11] 0.015 | [12] -0.012 | [13] -0.015 | [14] 0.061 | [15] 0.033 | [16] -0.014 | [17] -0.074 | [18] 0.034 | [19] 0.001 | [20] 0.036

C11orf68 isoform 3 (UniProt Q9H3H3)
inactive: [1] -0.02 | [2] 0.017 | [3] 0.01 | [4] -0.029 | [5] -0.025 | [6] -0.023 | [7] 0.004 | [8] 0 | [9] 0.018 | [10] -0.004 | [11] 0.008 | [12] -0.004 | [13] 0.001 | [14] 0.065 | [15] -0.004 | [16] -0.04 | [17] 0.012 | [18] 0.05 | [19] 0.022 | [20] -0.014

CAPZB isoform 2 (UniProt P47756)
inactive: [1] -0.103 | [2] -0.012 | [3] -0.041 | [4] -0.032 | [5] -0.042 | [6] -0.029 | [7] 0.028 | [8] 0.028 | [9] -0.01 | [10] -0.016 | [11] -0.005 | [12] -0.084 | [13] -0.022 | [14] 0.012 | [15] 0.022 | [16] 0.034 | [17] -0.079 | [18] 0.044 | [19] 0.003 | [20] -0.024

C12orf65 (UniProt Q9H3J6)
inactive: [1] 0.147 | [2] -0.015 | [3] 0.019 | [4] -0.01 | [5] 0.027 | [6] -0.028 | [7] -0.115 | [8] -0.009 | [9] -0.005 | [10] 0.035 | [11] -0.009 | [12] 0.011 | [13] -0.017 | [14] -0.024 | [15] -0.011 | [16] -0.036 | [17] 0.01 | [18] -0.1 | [19] 0.038 | [20] 0.009

CAMLG (UniProt P49069)
active: [17] 0.257
inactive: [1] -0.019 | [2] -0.003 | [3] 0.084 | [4] -0.023 | [5] 0.009 | [6] -0.068 | [7] -0.024 | [8] -0.028 | [9] 0.004 | [10] -0.012 | [11] -0.027 | [12] 0 | [13] -0.021 | [14] 0.026 | [15] 0.002 | [16] -0.089 | [18] -0.04 | [19] -0.026 | [20] -0.002

CAAP1 (UniProt Q9H8G2)
inactive: [1] -0.066 | [2] -0.008 | [3] 0.012 | [4] -0.075 | [5] 0.05 | [6] 0.031 | [7] -0.198 | [8] -0.062 | [9] -0.01 | [10] -0.039 | [11] -0.061 | [12] -0.021 | [13] 0.005 | [14] 0.054 | [15] -0.003 | [16] -0.026 | [17] -0.153 | [18] 0.124 | [19] -0.018 | [20] 0.082

C18orf25 (UniProt Q96B23)
active: [4] -0.276
inactive: [1] 0.114 | [2] 0.026 | [3] 0 | [5] -0.038 | [6] 0.073 | [7] -0.008 | [8] 0.04 | [9] -0.091 | [10] -0.065 | [11] -0.014 | [12] 0.014 | [13] 0.004 | [14] 0.1 | [15] -0.013 | [16] -0.059 | [17] -0.035 | [18] 0.015 | [19] -0.032 | [20] 0.009

CAP1 (UniProt Q01518)
inactive: [1] 0.007 | [2] -0.019 | [3] -0.021 | [4] -0.018 | [5] 0.002 | [6] -0.014 | [7] 0.012 | [8] 0.024 | [9] -0.026 | [10] 0.001 | [11] -0.027 | [12] -0.005 | [13] -0.022 | [14] -0.006 | [15] 0.004 | [16] -0.019 | [17] 0.022 | [18] 0.008 | [19] 0.016 | [20] -0.021

C1GALT1C1 (UniProt Q96EU7)
inactive: [1] 0.009 | [2] -0.166 | [3] -0.023 | [4] -0.018 | [5] -0.011 | [6] -0.07 | [7] 0.013 | [8] 0.023 | [9] 0.005 | [10] -0.047 | [11] 0.022 | [12] 0.003 | [13] -0.01 | [14] 0.044 | [15] -0.046 | [16] -0.094 | [17] 0.038 | [18] -0.144 | [19] 0.042 | [20] -0.02

C1orf198 (UniProt Q9H425)
inactive: [1] -0.018 | [2] 0.004 | [3] 0.031 | [4] -0.015 | [5] 0.007 | [6] -0.166 | [7] -0.004 | [8] 0.01 | [9] -0.132 | [10] -0.067 | [11] 0.059 | [12] 0.004 | [13] -0.001 | [14] 0.094 | [15] 0.024 | [16] 0.092 | [17] -0.096 | [18] 0.052 | [19] -0.014 | [20] 0.005

CALB1 (UniProt P05937)
inactive: [1] 0.08 | [2] 0.011 | [3] 0.012 | [4] -0.004 | [5] -0.006 | [6] -0.025 | [7] 0.012 | [8] -0.002 | [9] 0.019 | [10] 0.02 | [11] -0.01 | [12] -0.022 | [13] 0.251 | [14] 0.012 | [15] 0.035 | [16] 0.015 | [17] 0.121 | [18] -0.103 | [19] -0.031 | [20] -0.003

C2CD2L (UniProt O14523)
inactive: [1] 0.04 | [2] 0.013 | [3] 0.017 | [4] -0.032 | [5] -0.007 | [6] -0.041 | [7] -0.155 | [8] 0.008 | [9] 0.011 | [10] -0.069 | [11] 0.118 | [12] 0.044 | [13] 0.008 | [14] 0.156 | [15] -0.055 | [16] 0.033 | [17] -0.022 | [18] -0.027 | [19] 0.034 | [20] 0.034
